Compound in this assay: Nc1ncnc2c1ncn2[C@@H]1O[C@H](COP(=O)(O)OP(=O)(O)OP(=O)(O)O)[C@@H](O)[C@H]1O [adenosine triphosphate]
The assay can be described thus: NP40-soluble protein abundance relative to vehicle (solubility fold change) (ratio); higher = more soluble protein in presence of ATP. Put shortly: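 Across three independent experiments, values are fold changes against the detergent-processed vehicle for each replicate, based on vsn-normalised intensities. The samples were Jurkat crude lysate treated with eight concentrations (0.1 to 10 mM) for 10 min at room temperature and then 3 min at 37 °C. Lysate was solubilised with 0.8% NP40 and benzonase, ultracentrifuged, and the supernatant analysed by TMT-labelled LC-MS/MS.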

By UniProt entry, the sequences of proteins in these tests, tags left out. Where a name states a change or a piece, a line headed by the entry shows the natural chain unless it says otherwise.
UniProt P0DMV9, whole entry, looked up: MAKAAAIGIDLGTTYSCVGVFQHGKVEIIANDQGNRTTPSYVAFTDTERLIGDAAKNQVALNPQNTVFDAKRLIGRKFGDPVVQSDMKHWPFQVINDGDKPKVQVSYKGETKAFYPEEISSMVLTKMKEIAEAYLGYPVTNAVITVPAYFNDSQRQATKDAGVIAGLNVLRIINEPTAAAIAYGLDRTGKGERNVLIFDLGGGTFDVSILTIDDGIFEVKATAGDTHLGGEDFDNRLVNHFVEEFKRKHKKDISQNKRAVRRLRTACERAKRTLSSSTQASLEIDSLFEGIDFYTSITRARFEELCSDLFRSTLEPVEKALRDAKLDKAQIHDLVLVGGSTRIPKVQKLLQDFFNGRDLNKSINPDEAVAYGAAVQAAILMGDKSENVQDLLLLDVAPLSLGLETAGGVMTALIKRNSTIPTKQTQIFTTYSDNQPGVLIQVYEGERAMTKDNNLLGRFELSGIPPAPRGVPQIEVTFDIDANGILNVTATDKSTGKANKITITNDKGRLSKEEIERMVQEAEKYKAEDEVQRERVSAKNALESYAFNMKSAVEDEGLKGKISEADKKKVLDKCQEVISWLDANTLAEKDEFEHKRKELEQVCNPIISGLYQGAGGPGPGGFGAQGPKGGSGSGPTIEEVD
UniProt Q7Z4G1, whole entry: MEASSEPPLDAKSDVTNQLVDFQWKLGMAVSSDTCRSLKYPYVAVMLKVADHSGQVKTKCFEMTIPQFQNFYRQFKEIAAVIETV
UniProt P55854, whole entry: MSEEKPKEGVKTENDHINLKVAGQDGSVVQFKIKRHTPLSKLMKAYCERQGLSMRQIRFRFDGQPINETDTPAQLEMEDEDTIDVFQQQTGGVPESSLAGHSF
UniProt Q9H9J4: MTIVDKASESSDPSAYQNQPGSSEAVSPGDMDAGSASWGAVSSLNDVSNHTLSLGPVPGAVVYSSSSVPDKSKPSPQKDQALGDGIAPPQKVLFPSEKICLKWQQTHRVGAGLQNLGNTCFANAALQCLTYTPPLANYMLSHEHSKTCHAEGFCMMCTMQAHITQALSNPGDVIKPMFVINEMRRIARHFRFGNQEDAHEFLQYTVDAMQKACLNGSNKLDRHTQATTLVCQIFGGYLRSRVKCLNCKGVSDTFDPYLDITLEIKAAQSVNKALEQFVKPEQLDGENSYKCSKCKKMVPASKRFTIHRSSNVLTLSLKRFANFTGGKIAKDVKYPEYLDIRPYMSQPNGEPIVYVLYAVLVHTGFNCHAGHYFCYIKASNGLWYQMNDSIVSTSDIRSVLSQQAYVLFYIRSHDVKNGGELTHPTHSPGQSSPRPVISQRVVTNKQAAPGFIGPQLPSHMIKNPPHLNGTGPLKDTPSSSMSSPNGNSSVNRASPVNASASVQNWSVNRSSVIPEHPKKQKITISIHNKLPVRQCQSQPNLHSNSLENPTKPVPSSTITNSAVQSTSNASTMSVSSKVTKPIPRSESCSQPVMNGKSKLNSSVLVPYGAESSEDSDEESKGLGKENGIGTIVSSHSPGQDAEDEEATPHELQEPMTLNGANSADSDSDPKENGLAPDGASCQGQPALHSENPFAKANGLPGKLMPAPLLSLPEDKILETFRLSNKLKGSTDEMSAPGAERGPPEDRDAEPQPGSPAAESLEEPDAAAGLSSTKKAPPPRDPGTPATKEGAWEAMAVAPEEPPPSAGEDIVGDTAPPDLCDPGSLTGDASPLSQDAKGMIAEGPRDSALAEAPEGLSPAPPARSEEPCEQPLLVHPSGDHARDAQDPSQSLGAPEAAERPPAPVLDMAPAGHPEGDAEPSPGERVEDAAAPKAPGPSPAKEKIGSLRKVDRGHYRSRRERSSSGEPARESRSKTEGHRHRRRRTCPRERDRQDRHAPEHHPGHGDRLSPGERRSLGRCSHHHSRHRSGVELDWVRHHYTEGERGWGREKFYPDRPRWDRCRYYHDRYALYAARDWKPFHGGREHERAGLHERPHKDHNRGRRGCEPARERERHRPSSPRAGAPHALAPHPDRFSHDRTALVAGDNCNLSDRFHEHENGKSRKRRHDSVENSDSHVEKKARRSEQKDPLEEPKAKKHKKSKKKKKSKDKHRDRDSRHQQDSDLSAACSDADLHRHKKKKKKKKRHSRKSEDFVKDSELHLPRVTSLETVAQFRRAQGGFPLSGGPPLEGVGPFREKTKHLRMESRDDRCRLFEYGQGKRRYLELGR
UniProt A1A4S6: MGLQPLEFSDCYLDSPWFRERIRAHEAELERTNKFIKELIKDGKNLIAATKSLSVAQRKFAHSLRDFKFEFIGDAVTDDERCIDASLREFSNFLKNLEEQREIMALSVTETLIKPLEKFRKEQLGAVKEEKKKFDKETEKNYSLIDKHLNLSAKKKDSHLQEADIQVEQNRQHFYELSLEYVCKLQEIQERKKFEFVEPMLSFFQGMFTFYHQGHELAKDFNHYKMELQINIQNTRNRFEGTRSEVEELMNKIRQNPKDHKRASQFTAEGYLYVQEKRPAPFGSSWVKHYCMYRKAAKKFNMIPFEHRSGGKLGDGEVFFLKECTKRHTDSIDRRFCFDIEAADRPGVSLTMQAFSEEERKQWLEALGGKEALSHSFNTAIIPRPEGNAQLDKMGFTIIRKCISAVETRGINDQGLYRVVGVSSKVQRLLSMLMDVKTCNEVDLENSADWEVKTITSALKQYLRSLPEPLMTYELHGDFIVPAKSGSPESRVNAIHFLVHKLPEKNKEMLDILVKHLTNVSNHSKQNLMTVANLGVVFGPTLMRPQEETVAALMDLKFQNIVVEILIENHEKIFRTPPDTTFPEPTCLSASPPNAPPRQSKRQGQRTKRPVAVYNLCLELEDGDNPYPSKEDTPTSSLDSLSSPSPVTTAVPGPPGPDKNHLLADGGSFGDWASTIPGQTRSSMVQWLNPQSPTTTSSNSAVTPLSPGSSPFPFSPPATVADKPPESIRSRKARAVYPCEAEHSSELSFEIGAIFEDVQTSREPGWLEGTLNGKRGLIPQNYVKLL
UniProt Q9Y5N5: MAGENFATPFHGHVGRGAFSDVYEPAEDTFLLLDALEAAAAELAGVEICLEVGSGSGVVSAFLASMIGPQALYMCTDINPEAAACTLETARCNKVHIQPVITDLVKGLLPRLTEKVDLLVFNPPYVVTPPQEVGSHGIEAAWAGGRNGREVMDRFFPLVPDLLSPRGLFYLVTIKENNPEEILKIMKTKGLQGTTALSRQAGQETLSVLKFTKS
UniProt A6NHR9: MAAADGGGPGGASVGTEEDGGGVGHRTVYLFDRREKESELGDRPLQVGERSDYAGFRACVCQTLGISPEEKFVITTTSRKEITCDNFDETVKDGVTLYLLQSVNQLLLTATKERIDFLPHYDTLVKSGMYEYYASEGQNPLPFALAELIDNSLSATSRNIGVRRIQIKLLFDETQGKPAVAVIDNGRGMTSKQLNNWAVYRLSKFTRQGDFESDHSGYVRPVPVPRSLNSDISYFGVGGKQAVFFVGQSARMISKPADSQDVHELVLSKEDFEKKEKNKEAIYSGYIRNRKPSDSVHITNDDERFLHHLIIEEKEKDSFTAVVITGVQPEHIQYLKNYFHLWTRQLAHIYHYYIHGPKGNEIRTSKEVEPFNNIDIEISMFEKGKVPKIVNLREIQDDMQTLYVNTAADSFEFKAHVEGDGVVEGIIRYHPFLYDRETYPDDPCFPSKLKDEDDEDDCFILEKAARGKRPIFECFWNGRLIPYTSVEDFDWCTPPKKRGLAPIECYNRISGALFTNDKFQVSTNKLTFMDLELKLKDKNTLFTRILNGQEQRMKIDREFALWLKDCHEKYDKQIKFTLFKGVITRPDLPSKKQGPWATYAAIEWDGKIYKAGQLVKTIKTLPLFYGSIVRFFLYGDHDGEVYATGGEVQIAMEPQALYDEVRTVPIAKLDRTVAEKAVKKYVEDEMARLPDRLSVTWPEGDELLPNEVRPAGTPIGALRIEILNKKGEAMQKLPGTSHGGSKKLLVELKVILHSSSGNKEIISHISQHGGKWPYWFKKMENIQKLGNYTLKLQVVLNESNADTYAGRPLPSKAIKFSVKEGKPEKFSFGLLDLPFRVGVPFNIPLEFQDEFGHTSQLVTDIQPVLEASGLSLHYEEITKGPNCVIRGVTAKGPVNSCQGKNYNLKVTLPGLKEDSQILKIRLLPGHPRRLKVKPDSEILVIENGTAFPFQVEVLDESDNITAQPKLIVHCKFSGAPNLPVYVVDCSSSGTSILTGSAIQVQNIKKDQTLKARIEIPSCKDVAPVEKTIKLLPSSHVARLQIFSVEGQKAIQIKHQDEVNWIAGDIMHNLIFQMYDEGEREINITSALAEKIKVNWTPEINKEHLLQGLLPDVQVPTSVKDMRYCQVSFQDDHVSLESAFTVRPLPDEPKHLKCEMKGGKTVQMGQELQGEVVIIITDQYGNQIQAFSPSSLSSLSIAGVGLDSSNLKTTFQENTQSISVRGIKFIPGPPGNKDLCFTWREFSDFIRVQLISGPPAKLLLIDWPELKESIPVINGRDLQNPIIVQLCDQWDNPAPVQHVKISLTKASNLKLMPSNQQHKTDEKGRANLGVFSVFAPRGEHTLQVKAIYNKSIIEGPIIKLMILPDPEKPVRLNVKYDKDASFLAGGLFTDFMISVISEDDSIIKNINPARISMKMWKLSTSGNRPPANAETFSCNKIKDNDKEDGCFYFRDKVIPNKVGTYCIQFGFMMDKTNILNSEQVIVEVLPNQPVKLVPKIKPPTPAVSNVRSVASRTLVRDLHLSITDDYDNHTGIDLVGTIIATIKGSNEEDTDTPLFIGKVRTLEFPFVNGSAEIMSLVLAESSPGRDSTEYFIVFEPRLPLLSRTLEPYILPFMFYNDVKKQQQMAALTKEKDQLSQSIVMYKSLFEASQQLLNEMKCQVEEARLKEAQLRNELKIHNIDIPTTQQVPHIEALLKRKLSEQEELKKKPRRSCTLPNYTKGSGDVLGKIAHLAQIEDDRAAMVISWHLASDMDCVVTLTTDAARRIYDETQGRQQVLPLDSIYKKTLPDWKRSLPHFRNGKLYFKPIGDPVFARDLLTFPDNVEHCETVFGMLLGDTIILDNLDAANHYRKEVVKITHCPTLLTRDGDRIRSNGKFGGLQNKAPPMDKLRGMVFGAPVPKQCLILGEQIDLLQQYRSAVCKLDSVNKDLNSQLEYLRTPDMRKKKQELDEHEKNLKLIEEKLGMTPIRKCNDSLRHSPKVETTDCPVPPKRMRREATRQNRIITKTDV
UniProt A6NDU8: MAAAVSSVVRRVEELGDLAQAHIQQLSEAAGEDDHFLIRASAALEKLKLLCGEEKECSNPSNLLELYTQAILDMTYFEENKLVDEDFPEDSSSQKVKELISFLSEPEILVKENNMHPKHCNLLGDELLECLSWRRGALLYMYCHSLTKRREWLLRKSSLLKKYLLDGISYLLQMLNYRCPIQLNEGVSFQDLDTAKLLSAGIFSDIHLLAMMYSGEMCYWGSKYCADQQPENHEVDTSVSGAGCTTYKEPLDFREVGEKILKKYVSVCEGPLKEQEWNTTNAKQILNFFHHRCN
UniProt Q96HP4: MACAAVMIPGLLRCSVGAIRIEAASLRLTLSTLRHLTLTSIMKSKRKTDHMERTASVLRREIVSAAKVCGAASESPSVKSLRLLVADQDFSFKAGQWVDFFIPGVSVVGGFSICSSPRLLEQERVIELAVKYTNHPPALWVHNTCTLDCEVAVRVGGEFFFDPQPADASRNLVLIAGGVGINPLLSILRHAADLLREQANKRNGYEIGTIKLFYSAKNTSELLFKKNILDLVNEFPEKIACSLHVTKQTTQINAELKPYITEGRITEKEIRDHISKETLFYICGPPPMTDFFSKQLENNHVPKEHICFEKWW
UniProt P25686: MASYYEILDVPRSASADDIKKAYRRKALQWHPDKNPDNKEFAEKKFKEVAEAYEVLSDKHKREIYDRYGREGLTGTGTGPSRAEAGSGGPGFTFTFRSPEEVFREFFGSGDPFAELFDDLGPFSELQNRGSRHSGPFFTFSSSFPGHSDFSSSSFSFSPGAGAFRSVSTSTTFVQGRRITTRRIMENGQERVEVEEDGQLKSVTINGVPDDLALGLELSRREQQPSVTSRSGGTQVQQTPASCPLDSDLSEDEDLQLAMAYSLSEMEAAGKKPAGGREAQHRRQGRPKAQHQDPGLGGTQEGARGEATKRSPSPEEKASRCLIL
UniProt Q9BPX6: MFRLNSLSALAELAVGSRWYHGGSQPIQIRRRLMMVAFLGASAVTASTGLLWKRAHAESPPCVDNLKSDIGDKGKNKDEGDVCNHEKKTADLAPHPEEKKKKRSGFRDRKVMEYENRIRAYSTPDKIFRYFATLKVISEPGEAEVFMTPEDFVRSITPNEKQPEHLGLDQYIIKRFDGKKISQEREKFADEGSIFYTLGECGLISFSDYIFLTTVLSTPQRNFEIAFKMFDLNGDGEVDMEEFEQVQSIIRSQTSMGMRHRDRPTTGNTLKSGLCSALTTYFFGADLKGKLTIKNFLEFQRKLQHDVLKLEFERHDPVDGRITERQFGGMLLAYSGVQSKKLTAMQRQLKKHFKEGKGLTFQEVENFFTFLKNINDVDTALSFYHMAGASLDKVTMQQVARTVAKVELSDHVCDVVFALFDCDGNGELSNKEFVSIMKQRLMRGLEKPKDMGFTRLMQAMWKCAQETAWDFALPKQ

± gives the standard deviation of the averaged measurements. This is a selection; strong and weak results do not stand in their true shares. Small differences around the control level are noise.

The source of these data is the supplement of paper PMC6411743.

Turning to “B4DH95 and related entries (UniProt Q6P9H5)”, the NP40-soluble protein abundance was found to be 0.998 ± 0.047 (concentration: 0.1mM) and 1 ± 0.032 (concentration: 0.5mM).
For the target “A0A0G2JIW1|P0DMV8 and related entries (UniProt P0DMV9+P0DMV8)”, the NP40-soluble protein abundance turned out to be 1.02 ± 0.022 (concentration: 0.1mM) and 1.07 ± 0.064 (concentration: 0.5mM).
For “D6RCD0 and related entries (UniProt Q8NBQ5)” the same measures were 0.961 ± 0.042 and 0.986 ± 0.056.
For “A6NCE7 and related entries (UniProt Q9GZQ8+H3BTL1+A6NCE7)” the same measures were 0.976 ± 0.038 and 0.993 ± 0.052.
For “C9J494 and related entries (UniProt Q9H000)” the same measures were 1.05 ± 0.05 and 1.04 ± 0.054.
In the case of “B4E3Q4 and related entries (UniProt Q9NZK5)”, the NP40-soluble protein abundance stood at 1.04 ± 0.024 (concentration: 0.1mM) and 0.994 ± 0.033 (concentration: 0.5mM).
On the same counts, the results for UniProt B4DLN1 are 0.952 ± 0.018 and 0.907 ± 0.016.
On the same counts, the results for A0A0U1RQK7 (UniProt O43432) are 1.01 ± 0.012 and 1.05 ± 0.046.
For UniProt A0MZ66 the same measures were 0.994 ± 0.019 and 1.03 ± 0.039.
Take “B0QZ40 and related entries (UniProt Q7Z4G1)”: the NP40-soluble protein abundance turned out to be 0.852 ± 0.064 (concentration: 0.1mM) and 0.857 ± 0.098 (concentration: 0.5mM).
On the same counts, the results for “A8MU27 and related entries (UniProt P55854)” are 0.884 ± 0.098 and 0.855 ± 0.21.
On the same counts, the results for “C9JPC9 and related entries (UniProt Q9H9J4)” are 0.984 ± 0.06 and 0.939 ± 0.05.
Regarding ARHGAP10 (UniProt A1A4S6), the NP40-soluble protein abundance reads like this: (concentration: 0.1mM) 0.975 ± 0.086; (concentration: 0.5mM) 0.9834 ± 0.0047.
On the same counts, the results for UniProt A5PLN9 and related entries are 1.02 ± 0.044 and 1.01 ± 0.03.
On the same counts, the results for “B4E1Q4 and related entries (UniProt O14730)” are 1.03 ± 0.09 and 0.979 ± 0.092.
For “C9JLT7 and related entries (UniProt Q8TBF5)” the same measures were 0.92 ± 0.076 and 0.941 ± 0.051.
As to “B2RA97 and related entries (UniProt Q9Y5N5)”, the NP40-soluble protein abundance (concentration: 0.1mM) turned out to be 1.04 ± 0.13 and the NP40-soluble protein abundance (concentration: 0.5mM) was 0.97 ± 0.074.
For “B7Z6D5 and related entries (UniProt Q96GQ7)” the same measures were 1.03 ± 0.066 and 1.06 ± 0.015.
Consider “B7WPL0 and related entries (UniProt Q9NVN3)”, for which the NP40-soluble protein abundance reads like this: (concentration: 0.1mM) 1 ± 0.022; (concentration: 0.5mM) 0.996 ± 0.048.
As to “B9A018 and related entries (UniProt Q53GS9)”, the NP40-soluble protein abundance was 1.05 ± 0.083 (concentration: 0.1mM) and 1.13 ± 0.088 (concentration: 0.5mM).
For “C9J5X1 and related entries (UniProt P08069)” the same measures were 0.976 ± 0.018 and 0.968 ± 0.036.
For UniProt A6NHR9 and related entries the same measures were 1.06 ± 0.066 and 1.06 ± 0.077.
For “D6RB01 and related entries (UniProt Q9Y6X4)” the same measures were 0.987 ± 0.033 and 0.962 ± 0.056.
For the target “B1AKC9 and related entries (UniProt P29323)”, the NP40-soluble protein abundance was determined as 1.03 ± 0.16 (concentration: 0.1mM) and 1.03 ± 0.17 (concentration: 0.5mM).
As to UniProt A6NJ78, the NP40-soluble protein abundance (concentration: 0.1mM) is 0.973 ± 0.056 and the NP40-soluble protein abundance (concentration: 0.5mM) was determined as 0.938 ± 0.14.
As for C5orf51 (UniProt A6NDU8), the NP40-soluble protein abundance stood at 1.03 ± 0.043 (concentration: 0.1mM) and 0.993 ± 0.051 (concentration: 0.5mM).
For “A0A0J9YXM6|I3L1G2 and related entries (UniProt Q562E7)” the same measures were 0.987 ± 0.12 and 0.919 ± 0.17.
On the same counts, the results for “C9JZB0 and related entries (UniProt Q9BT40)” are 1.02 ± 0.016 and 1 ± 0.087.
Take “A0A0G2JNB1|A0A0G2JNT7|Q7Z3B3 and related entries (UniProt Q7Z3B3)”: the NP40-soluble protein abundance (concentration: 0.1mM) was 0.98 ± 0.053 and the NP40-soluble protein abundance (concentration: 0.5mM) stood at 1.05 ± 0.084.
On the same counts, the results for “A0A0G2JLV7|A0A0G2JMI0|A0A0G2JNK8|A0A0G2JNU6|A0A0G2JP18|A0A0G2JQ50|A0A140T8W3|Q6GTX8 and related entries (UniProt Q6GTX8)” are 0.971 ± 0.12 and 0.919 ± 0.1.
On the same counts, the results for “C9JLV4 and related entries (UniProt O14727)” are 1.06 ± 0.064 and 1.01 ± 0.052.
For “A0A0R4J2E2|Q9Y3T6 and related entries (UniProt Q9Y3T6)” the same measures were 1.04 ± 0.026 and 1.01 ± 0.048.
With “D4Q8H0 and related entries (UniProt Q9NYL2+D4Q8H0)”, the NP40-soluble protein abundance stood at 1.036 ± 0.0056 (concentration: 0.1mM) and 1.02 ± 0.052 (concentration: 0.5mM).
For HACD1 (UniProt B0YJ81) the same measures were 1.08 ± 0.046 and 1.11 ± 0.13.
Take “C9J2P0 and related entries (UniProt P51965)”: the NP40-soluble protein abundance (concentration: 0.1mM) was determined as 0.999 ± 0.098 and the NP40-soluble protein abundance (concentration: 0.5mM) was determined as 1.09 ± 0.08.
On to “A6NHG8 and related entries (UniProt Q13114)”, for which the NP40-soluble protein abundance was found to be 1.08 ± 0.029 (concentration: 0.1mM) and 1.07 ± 0.013 (concentration: 0.5mM).
For “C9JLB7 and related entries (UniProt Q96HP4)”, the NP40-soluble protein abundance is, setting by setting: (concentration: 0.1mM) 1.04 ± 0.085; (concentration: 0.5mM) 1.14 ± 0.095; (concentration: 1mM) 1.09 ± 0.083; (concentration: 2mM) 1.1 ± 0.1; (concentration: 4mM) 1.06 ± 0.075; (concentration: 6mM) 1.12 ± 0.17. Besides, the NP40-soluble protein abundance is, setting by setting: (concentration: 8mM) 1.17 ± 0.14; (concentration: 10mM) 1.05 ± 0.042.
“C9JRD2 and related entries (UniProt P25686)”: the NP40-soluble protein abundance runs as follows: (concentration: 0.1mM) 0.99 ± 0.052; (concentration: 0.5mM) 0.951 ± 0.03; (concentration: 1mM) 0.969 ± 0.038; (concentration: 2mM) 0.956 ± 0.019; (concentration: 4mM) 0.956 ± 0.022; (concentration: 6mM) 0.971 ± 0.06. For the same target, the NP40-soluble protein abundance was 0.973 ± 0.016 (concentration: 8mM) and 0.977 ± 0.025 (concentration: 10mM).
Consider RCCD1 (UniProt A6NED2), for which the NP40-soluble protein abundance (concentration: 0.1mM) amounted to 0.994 ± 0.032 and the NP40-soluble protein abundance (concentration: 0.5mM) was determined as 1.03 ± 0.064.
As to TMEM120B (UniProt A0PK00), the NP40-soluble protein abundance reads like this: (concentration: 0.1mM) 0.94 ± 0.026; (concentration: 0.5mM) 0.993 ± 0.068; (concentration: 1mM) 0.948 ± 0.058; (concentration: 2mM) 1.05 ± 0.042; (concentration: 4mM) 1.04 ± 0.09; (concentration: 6mM) 0.894 ± 0.12. Moreover, the NP40-soluble protein abundance amounted to 1.15 ± 0.13 (concentration: 8mM) and 1.13 ± 0.14 (concentration: 10mM).
Turning to “A0A0U1RRK1|F6XEV2 and related entries (UniProt Q9BPX6)”, the NP40-soluble protein abundance (concentration: 0.1mM) was 1.01 ± 0.048; the NP40-soluble protein abundance (concentration: 0.5mM) was determined as 1.02 ± 0.064; the NP40-soluble protein abundance (concentration: 1mM) is 1.01 ± 0.073; the NP40-soluble protein abundance (concentration: 2mM) is 1.01 ± 0.045; the NP40-soluble protein abundance (concentration: 4mM) came to 1.04 ± 0.038; the NP40-soluble protein abundance (concentration: 6mM) stood at 1.05 ± 0.067. The NP40-soluble protein abundance by setting is: (concentration: 8mM) 1.07 ± 0.066; (concentration: 10mM) 1.08 ± 0.058.
